In the supplement of paper PMC10735217:
Counter-ions that a name gives are not always drawn. This is one part of the list. This data set is noisy: repeats of one test often differ as much as different tests do.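 The human kidney-derived cells carry a stably integrated construct of eight TEAD-binding elements driving luciferase, read by luminescence in a drug-repurposing library screen. A compound counts as a hit when its signal is more than five robust Z scores above the plate mean.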

Test system: HEK293A TEAD-LUC reporter
Test: TEAD-luciferase reporter activity (YAP activation), robust Z score vs plate; higher = stronger YAP/TEAD activation
Conditions: 24 h

Row | Compound | TEAD-luciferase reporter activity (compound concentration: 200 nM) | TEAD-luciferase reporter activity (compound concentration: 10 uM) | TEAD-luciferase reporter activity (compound concentration: 2 uM)
1 | O=C1NC2(Cc3ccccc31)CN(C(=O)C1CCCCC1)C2 | inactive: -2 | inactive: -1.03 | 
2 | CN(Cc1ccccc1C(F)(F)F)C1CCc2ccccc21 (configuration not stated) | inactive: -1.51 | inactive: -1.49 | 
3 | CC(C)(c1ccc(O)cc1)c1ccc(O)cc1 [Bisphenol A] |  |  | inactive: -0.574
4 | CC(C)(c1ccc(O)cc1)c1ccc(O)cc1 | inactive: -0.926 | inactive: -0.574 | 
5 | COc1cc(O)ccc1CCCc1ccc(O)cc1 | inactive: 0.00437 | inactive: -0.427 | inactive: -0.382
6 | C=CCn1c(N)cc(=O)n(CC)c1=O | inactive: 0.631 | inactive: -0.278 | active: 5.9
7 | NCCCC(N)(C(=O)O)C(F)F (racemic) [DL-alpha-Difluoromethylornithine hydrochloride] | inactive: -1.62 | inactive: -0.748 | 
8 | N#Cc1ccc(C(C(O)Cc2ccc(F)cc2)n2cncn2)cc1 (configuration not stated) | inactive: -0.957 | inactive: -1.21 | inactive: 0.127
9 | CCS(=O)(=O)Nc1ccc(Oc2ccc(F)cc2F)c(-c2cn(C)c(=O)c3[nH]ccc23)c1 | active: 29.7 | active: 19.1 | active: 12.4
10 | CCCCCCCCCCCCCCC[C@@H](O)[C@H](CO)NC(C)=O [Cedefingol] | inactive: 1.49 | inactive: 1.38 | 
11 | CCCCCCCCCCCCCCC[C@@H](O)[C@H](CO)NC(C)=O |  |  | inactive: -1.13
12 | COCCOC(=O)CN1CCC(NC(=O)c2cc(Cl)c(N)cc2OC)CC1 | inactive: -1.07 | inactive: -0.944 | inactive: -0.694
13 | COc1cc(NCCCCCCN2CCN(CCC(C)O)CC2)c2ncccc2c1 (configuration not stated) [Moxipraquine] | inactive: -1.05 | inactive: 0.389 | 
14 | CN[C@H]1[C@H](O)C[C@H]2[C@@H]3CCc4cc(O)ccc4[C@H]3CC[C@@]21C | inactive: -1.4 | inactive: -0.422 | inactive: -0.552
15 | CC(C)=CCC[C@](C)(O[C@@H]1O[C@H](CO)[C@@H](O)[C@H](O)[C@H]1O)[C@H]1CC[C@]2(C)[C@@H]1[C@H](O)C[C@@H]1[C@@]3(C)CC[C@H](O)C(C)(C)[C@@H]3CC[C@]12C [20-O-beta-D-Glucopyranosyl-20(S)-protopanaxadiol] | inactive: -0.752 | inactive: -0.741 | inactive: -1.08
16 | CC(C)(C)C(=O)Oc1cc2c(s1)CC[N+]([O-])(Cc1ccccc1Cl)C2 (configuration not stated) | inactive: -1.45 | inactive: -1.69 | inactive: -0.505
17 | CN(C)CCN(Cc1ccc(Cl)cc1)c1ccccn1 [Chloropyramine] | inactive: 0.0154 | inactive: 1.29 | inactive: 0.627
18 | C[C@H](Cc1cc2c(c(C(N)=O)c1)N(CCCO)CC2)NCCOc1ccccc1OCC(F)(F)F [silodosin] | inactive: -1.17 | inactive: 3.35 | inactive: -1.33

Row | Compound | TEAD-luciferase reporter activity (compound concentration: 200 nM) | TEAD-luciferase reporter activity (compound concentration: 10 uM) | TEAD-luciferase reporter activity (compound concentration: 2 uM)
19 | O=C(O)[C@]1(Cc2cccc(Nc3nccs3)n2)CC[C@@H](Oc2cccc(Cl)c2F)CC1 | inactive: 2.49 | inactive: 0.884 | inactive: -1.82
20 | Cc1ccc2c(c1)nc1cc(Nc3ccc(Cl)cc3)/c(=N/C3CCCCCCC3)cc-1n2-c1ccc(Cl)cc1 | inactive: -1.78 | inactive: 1.07 | inactive: -1.74
21 | CC1=C(c2ccc(-n3ccnc3)cc2)NNC(=O)C1 | inactive: 0.112 | inactive: -0.917 | inactive: -1.28
22 | Cc1cc(Oc2ccc3nc(COc4ccc(Cc5sc(O)nc5O)cc4)n(C)c3c2)cc(C)c1N [_:_2016-03-02: Efatutazone hydrochloride] |  |  | inactive: 0.819
23 | Cc1cc(Oc2ccc3nc(COc4ccc(Cc5sc(O)nc5O)cc4)n(C)c3c2)cc(C)c1N [2016-03-02: Efatutazone hydrochloride] | inactive: -0.167 | active: 7.37 | 
24 | Cc1cc2c(OCC(CNC(C)(C)C)OC(=O)c3ccccc3)cccc2[nH]1 (configuration not stated) [bopindolol] |  |  | inactive: -0.902
25 | Cc1cc2c(OCC(CNC(C)(C)C)OC(=O)c3ccccc3)cccc2[nH]1 (configuration not stated) [Bopindolol malonate] | inactive: -1.93 | inactive: -1.36 | 
26 | COc1cc2[nH]c(=O)c3n[nH]nc3c(=O)c2cc1OC [metabolite of ME-3301] | inactive: -1.38 | inactive: -0.989 | inactive: 1.79
27 | CC(C)c1ccc2c(CCCCNS(=O)(=O)c3ccc(Cl)cc3)cc(S(=O)(=O)O)c-2cc1 | inactive: -1.23 | inactive: 1.19 | inactive: 0.0429
28 | CCCn1c(=O)c2[nH]c(C3CCCC3)nc2n(CCC)c1=O | inactive: 1.43 | inactive: 2.97 | inactive: 1.16
29 | CCCN(Cc1ccc(-c2ccccc2-c2nnn[nH]2)cc1)c1ncccc1C(=O)O | inactive: -0.96 | inactive: -0.875 | inactive: -1.11
30 | CSc1nn2c(C)cc(C)nc2c1S(=O)(=O)c1ccccc1 | inactive: 1.65 | inactive: 2.3 | inactive: -1.21
31 | O=C1c2c(c3c4ccc(O)cc4n([C@@H]4O[C@H](CO)[C@@H](O)[C@H](O)[C@H]4O)c3c3[nH]c4cc(O)ccc4c23)C(=O)N1NC(CO)CO | inactive: -1.65 | inactive: 0.355 | inactive: -1.78
32 | COc1cc(C2C(C#N)=C(N)Oc3c2ccc(N)c3N)cc(Br)c1OC (configuration not stated) [Crolibulin] | active: 5.72 | inactive: 3.62 | active: 7.51
33 | NCCCNCCCCNCCCN | active: 5.01 | inactive: -0.921 | inactive: -0.184
34 | CCCCCCCC(=O)OCCCC | inactive: 1.07 | inactive: -1.42 | inactive: 0.0305
35 | O=C(O)CSc1nnc(Br)n1-c1ccc(C2CC2)c2ccccc12 [lesinurad] | inactive: -1.85 | inactive: -1.39 | inactive: -0.341
36 | CC1c2ccccc2Cn2cc3c(c21)C(=O)c1cccc(OP(=O)(O)OCc2ccccc2)c1C3=O (configuration not stated) [Fosquidone] | inactive: -0.763 | inactive: -1.03 | inactive: -0.0995

Reprinted at random: 3 entries already listed
Row | Compound | TEAD-luciferase reporter activity (compound concentration: 200 nM) | TEAD-luciferase reporter activity (compound concentration: 10 uM) | TEAD-luciferase reporter activity (compound concentration: 2 uM)
28 | CCCn1c(=O)c2[nH]c(C3CCCC3)nc2n(CCC)c1=O | inactive: 1.43 | inactive: 2.97 | inactive: 1.16
15 | CC(C)=CCC[C@](C)(O[C@@H]1O[C@H](CO)[C@@H](O)[C@H](O)[C@H]1O)[C@H]1CC[C@]2(C)[C@@H]1[C@H](O)C[C@@H]1[C@@]3(C)CC[C@H](O)C(C)(C)[C@@H]3CC[C@]12C [20-O-beta-D-Glucopyranosyl-20(S)-protopanaxadiol] | inactive: -0.752 | inactive: -0.741 | inactive: -1.08
32 | COc1cc(C2C(C#N)=C(N)Oc3c2ccc(N)c3N)cc(Br)c1OC (configuration not stated) [Crolibulin] | active: 5.72 | inactive: 3.62 | active: 7.51
